The values that follow are results of earlier work, collected in patent US20100093661A1, “COMPOSITION COMPRISING CHITOSAN AND AN ACIDIC DRUG FOR ORAL CONTROLLED RELEASE” (The Jordanian Pharmaceutical Manufacturing Co., priority 2007, published 2010).

The conditions of the series: background description of the drug; cited from earlier work.

For the compound `CC(C)Cc1ccc(C(C)C(=O)O)cc1` (stereo not shown) [Ibuprofen], the water solubility result was “practically insoluble in water”.
